Amino acid sequences for entries named in this document (tags omitted).
UniProt P08515, whole entry: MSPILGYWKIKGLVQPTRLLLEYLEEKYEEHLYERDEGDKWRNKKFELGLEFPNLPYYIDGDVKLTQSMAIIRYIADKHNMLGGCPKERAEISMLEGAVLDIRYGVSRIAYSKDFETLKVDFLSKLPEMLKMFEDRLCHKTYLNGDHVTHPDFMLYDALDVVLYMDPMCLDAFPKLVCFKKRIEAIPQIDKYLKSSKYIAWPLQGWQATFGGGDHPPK

In paper PMC5502268, “DNA Methylation Influences Chlorogenic Acid Biosynthesis in Lonicera japonica by Mediating LjbZIP8 to Regulate Phenylalanine Ammonia-Lyase 2 Expression”:

How the values were obtained:
Assay in all cases: EMSA
[1] = test system: rLjbZIP4 (Lonicera japonica var. chinensis); details: 40 fmol biotin probe, 15 fmol protein, 0 or 4 pmol competitor, room temperature 20 min, Pierce LightShift kit 20148; binding buffer, salt and pH not stated; recombinant protein; protein details: GST (pGEX-4T-1)
[2] = biological target: GST (empty pGEX-4T-1) (UniProt P08515); details: crude E. coli protein, empty vector; 40 fmol biotin probe, 15 fmol protein, 0 or 4 pmol competitor, room temperature 20 min, Pierce LightShift kit 20148; binding buffer, salt and pH not stated; protein in an extract; protein details: GST
[3] = test system: rLjbZIP18 (Lonicera japonica var. chinensis); details: 40 fmol biotin probe, 15 fmol protein, 0 or 4 pmol competitor, room temperature 20 min, Pierce LightShift kit 20148; binding buffer, salt and pH not stated; recombinant protein; protein details: GST (pGEX-4T-1)
[4] = test system: rLjbZIP1 (Lonicera japonica var. chinensis); details: 40 fmol biotin probe, 15 fmol protein, 0 or 4 pmol competitor, room temperature 20 min, Pierce LightShift kit 20148; binding buffer, salt and pH not stated; recombinant protein; protein details: GST (pGEX-4T-1)

Measured: binding result

CTCTCCTGTCCACGTGTCATCAAC (double strand) [LjPAL2 G-box probe]
no binding: all assays above

Construct, isoform or probe ends are uncertain for at least one entry. No signal at the amounts used counts as a negative. For some of these results: Where cells or extracts were used, other partners may take part.
